Assay results published in patent US20070041944A1, “Treating tumors by ENH dislocation of ID proteins” (THE TRUSTEES OF COLUMBIA UNIVERSITY IN THE CITY OF NEW YORK, priority 2005, published 2007).
No constants are given. Whether binding was seen depends on the method and setting. Some results given as binding are weak or reduced against the parent protein; the word gives no strength.

Sequences of proteins named here, by UniProt entry; tags and fusion partners are left off. Residues count along the entry.
UniProt Q99081, residues 577-682: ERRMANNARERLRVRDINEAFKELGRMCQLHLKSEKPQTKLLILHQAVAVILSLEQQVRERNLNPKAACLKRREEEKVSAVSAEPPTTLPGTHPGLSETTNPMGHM
UniProt P15884, residues 564-667: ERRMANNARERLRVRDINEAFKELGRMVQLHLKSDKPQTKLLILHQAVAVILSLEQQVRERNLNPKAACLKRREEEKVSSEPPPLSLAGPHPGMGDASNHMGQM

Tests used:
Assay in all cases: yeast two-hybrid screen of a human fetal brain cDNA library
[1] = target: T1, Id2 clones from the two-hybrid screen (human) (UniProt Q02363)
T1 sequence (looked up): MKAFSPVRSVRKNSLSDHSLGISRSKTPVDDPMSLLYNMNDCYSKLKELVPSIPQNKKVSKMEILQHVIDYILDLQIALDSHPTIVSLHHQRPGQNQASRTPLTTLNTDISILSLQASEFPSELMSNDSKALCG

[2] = target: bHLH transcription factor HEB (two-hybrid clones) (human) (UniProt Q99081)
[3] = target: bHLH transcription factor E2-2 (two-hybrid clones) (human) (UniProt P15884)

Measured: binding

B1: full length Id2 as bait (entire coding sequence of human Id2 in bait plasmid pDBLeu) (protein, UniProt Q02363 1-134, looked up)
chain: MKAFSPVRSVRKNSLSDHSLGISRSKTPVDDPMSLLYNMNDCYSKLKELVPSIPQNKKVSKMEILQHVIDYILDLQIALDSHPTIVSLHHQRPGQNQASRTPLTTLNTDISILSLQASEFPSELMSNDSKALCG
binds: all assays above
